According to paper doi:10.1101/2024.01.22.576510 (bioRxiv, 2024):
Like-named read-outs stand apart in the source and are kept apart here. Results are given in words; binding and its absence hold for the method and conditions named. Some binding calls cover weakened binding; strength is not graded here.

How the values were obtained:
[1] = molecular target: T1, human NTCP on HEK-NTCP cells (human) (UniProt Q14973); test: binding of a fluorescent peptide to cells
T1 sequence: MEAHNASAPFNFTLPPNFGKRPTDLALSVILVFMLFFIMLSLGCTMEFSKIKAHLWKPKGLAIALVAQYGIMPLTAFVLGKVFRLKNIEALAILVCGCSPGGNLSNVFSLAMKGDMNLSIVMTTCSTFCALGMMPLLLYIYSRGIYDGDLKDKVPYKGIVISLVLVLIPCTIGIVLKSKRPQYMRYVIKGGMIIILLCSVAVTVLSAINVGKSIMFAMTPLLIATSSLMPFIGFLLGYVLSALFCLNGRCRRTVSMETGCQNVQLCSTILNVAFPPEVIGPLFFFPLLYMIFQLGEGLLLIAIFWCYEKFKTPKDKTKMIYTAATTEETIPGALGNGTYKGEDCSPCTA

[2] = molecular target: T1, human NTCP on HEK-NTCP cells (human); test: binding of a fluorescent peptide to cells; remark: listed apart in the source

Q: Which results are given for “NH2-terminally myristoylated and COOH-terminally AlexaFluor 568-coupled fluorescent myr-preS1 2-48 peptide (from UniProt P03138 2-48)”?
A: binding [1]: binds; binding [2]: binds
